Drawing on PMC10902300, this text covers binding for one substance.

Amino acid sequences for entries named in this document (tags omitted).
UniProt P15923: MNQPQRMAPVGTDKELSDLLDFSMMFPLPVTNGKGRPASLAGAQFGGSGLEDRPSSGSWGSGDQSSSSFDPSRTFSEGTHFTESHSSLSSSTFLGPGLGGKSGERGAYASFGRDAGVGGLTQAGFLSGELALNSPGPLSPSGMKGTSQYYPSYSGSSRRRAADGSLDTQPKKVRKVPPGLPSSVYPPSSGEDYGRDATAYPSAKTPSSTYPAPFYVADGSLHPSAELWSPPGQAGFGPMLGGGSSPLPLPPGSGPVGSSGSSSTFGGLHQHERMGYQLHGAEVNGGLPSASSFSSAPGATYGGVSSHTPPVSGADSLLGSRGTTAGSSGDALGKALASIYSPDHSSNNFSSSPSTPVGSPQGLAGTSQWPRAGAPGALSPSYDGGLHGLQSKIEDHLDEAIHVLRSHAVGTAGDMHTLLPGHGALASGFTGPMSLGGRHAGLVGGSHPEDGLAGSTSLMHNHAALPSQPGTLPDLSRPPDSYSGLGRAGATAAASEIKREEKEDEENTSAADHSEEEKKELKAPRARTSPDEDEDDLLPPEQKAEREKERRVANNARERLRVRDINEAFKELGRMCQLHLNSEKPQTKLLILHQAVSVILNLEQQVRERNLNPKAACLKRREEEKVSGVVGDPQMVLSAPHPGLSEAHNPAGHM
UniProt Q13547: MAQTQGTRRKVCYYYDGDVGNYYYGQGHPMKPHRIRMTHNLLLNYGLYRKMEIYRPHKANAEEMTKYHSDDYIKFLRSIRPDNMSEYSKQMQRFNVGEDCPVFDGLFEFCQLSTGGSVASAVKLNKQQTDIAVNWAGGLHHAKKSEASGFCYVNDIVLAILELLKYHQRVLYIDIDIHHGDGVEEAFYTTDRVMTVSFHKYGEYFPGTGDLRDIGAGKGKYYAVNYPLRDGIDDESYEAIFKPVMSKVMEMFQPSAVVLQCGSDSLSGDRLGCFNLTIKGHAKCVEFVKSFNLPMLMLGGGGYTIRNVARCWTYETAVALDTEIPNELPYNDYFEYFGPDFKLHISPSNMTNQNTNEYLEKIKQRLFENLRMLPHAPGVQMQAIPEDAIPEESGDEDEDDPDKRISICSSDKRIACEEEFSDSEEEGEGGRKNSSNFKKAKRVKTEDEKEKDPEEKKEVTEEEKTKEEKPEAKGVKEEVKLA

Results are given in words; binding and its absence hold for the method and conditions named. In cells and extracts the contact can be indirect. These calls come from enrichment with a bait or labelling near it, and not all partners need be listed.

In the assay the target is Tcf3 in Jurkat cells (human (endogenous in Jurkat)) (UniProt P15923). Description: affinity purification with mass spectrometry; Jurkat cell lysate on anti-Tcf3 antibody-conjugated resin overnight at 4 °C; eluate separated by SDS-PAGE, gel segments to LC/MS.

Turning to “HDAC1 in Jurkat cells (from UniProt Q13547 1-482) (enzyme)”, the binding entry is “binds”.
